In assay [1] the target is T1, GFP-Aurora-A (stably expressed in HeLa cells) (human) (UniProt O14965).
T1 sequence: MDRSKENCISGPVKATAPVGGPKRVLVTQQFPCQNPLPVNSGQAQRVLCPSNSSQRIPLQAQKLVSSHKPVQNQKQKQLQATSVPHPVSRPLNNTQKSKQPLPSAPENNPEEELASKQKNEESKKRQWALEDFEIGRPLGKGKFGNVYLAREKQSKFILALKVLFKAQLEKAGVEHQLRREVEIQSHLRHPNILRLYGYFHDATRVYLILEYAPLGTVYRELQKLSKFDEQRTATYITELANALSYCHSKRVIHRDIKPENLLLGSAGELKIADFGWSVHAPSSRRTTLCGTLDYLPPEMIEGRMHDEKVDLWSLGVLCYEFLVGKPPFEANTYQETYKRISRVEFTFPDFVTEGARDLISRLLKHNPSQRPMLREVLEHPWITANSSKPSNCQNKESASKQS
As to the kind of experiment: co-IP; HeLa cells stably expressing GFP-Aurora-A, in G2 (16 h Ro-3306) or mitosis (1.5 h after release, with MG132); GFP-Trap agarose; Western blot.

Amino acid sequences for entries named in this document (tags omitted). A change or cut given only in a name is not applied to a line headed by its entry.
UniProt O43670: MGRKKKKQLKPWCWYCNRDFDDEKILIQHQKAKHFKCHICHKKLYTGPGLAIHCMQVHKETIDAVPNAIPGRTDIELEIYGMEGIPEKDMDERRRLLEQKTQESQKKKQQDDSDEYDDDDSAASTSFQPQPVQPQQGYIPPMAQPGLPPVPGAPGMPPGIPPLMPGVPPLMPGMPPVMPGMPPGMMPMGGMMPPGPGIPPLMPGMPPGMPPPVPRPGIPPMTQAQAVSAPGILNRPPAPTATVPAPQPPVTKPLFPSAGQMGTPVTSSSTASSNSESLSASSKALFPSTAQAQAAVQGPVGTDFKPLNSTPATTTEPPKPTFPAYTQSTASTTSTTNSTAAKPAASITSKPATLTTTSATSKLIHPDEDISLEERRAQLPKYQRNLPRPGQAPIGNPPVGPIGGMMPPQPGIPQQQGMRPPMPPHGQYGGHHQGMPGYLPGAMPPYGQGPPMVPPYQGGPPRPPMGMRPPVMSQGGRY

The target of assay [2] is T2, flag-hAurora-A-R195A (human) (UniProt O14965).
T2 sequence: T1 sequence with R195A
Put plainly: co-IP; flag-tagged proteins co-expressed with GFP-BuGZ-N in HEK293T for 24 h; lysate on flag-agarose 2 h at 4°C; Western blot. In general terms: A western blot detects proteins with antibodies after separation by electrophoresis.

For assay [3], the target named is T3, flag-hAurora-A-3A (R195A, R189A and E269A) (human) (UniProt O14965).
T3 sequence: T1 sequence with R189A, R195A, E269A
The assay is described as above.

For assay [4], the target named is T4, flag-hAurora-A-2A (R195A and R189A) (human) (UniProt O14965).
T4 sequence: T1 sequence with R189A, R195A
Described as above.

Assay [5] addresses T5, flag-hAurora-A (wild type) (human) (UniProt O14965).
T5 sequence: T1 sequence
Described as above.

Substitutions are numbered along the chain they refer to. No constants are given. Whether binding was seen depends on the method and setting. In cells and extracts the contact can be indirect. Some results given as binding are weak or reduced against the parent protein; the word gives no strength. Tags and fused reporters may be left off the sequences shown.

Consider “BuGZ (endogenous, HeLa) (from UniProt O43670 1-478)”, for which the binding entry in assay [1] is “binds”.
“GFP-BuGZ-N (from UniProt O43670 1-92) (domain or fragment)”: the binding entry in assay [2], in assay [3], in assay [4] and in assay [5] was “binds” throughout.

The values above are taken from article PMC11090908.
